Test results reported in publication PMC13156748.
Results are given in words; binding and its absence hold for the method and conditions named. Binding seen in cells or lysates may run through a third protein. A yes stands for co-enrichment or nearness to the bait. Other partners may have been found.

Target: FLAG-tagged cH2A (N-terminally truncated H2A, representing cleavage at L23)
Assay: affinity purification with mass spectrometry; FLAG antibody on protein G magnetic beads; lysate (~600 ug) of mESCs expressing FLAG-tagged FL-H2A or cH2A, overnight at 4 °C; IP buffer 20 mM Tris pH 7.5, 137 mM NaCl, 1% NP-40, with Benzonase; on-bead digestion, LC-MS; IgG as control

binding: binds
B1: Trim21 (protein, UniProt Q62191 1-470)
chain: MSPSTTSKMSLEKMWEEVTCSICLDPMVEPMSIECGHCFCKECIFEVGKNGGSSCPECRQQFLLRNLRPNRHIANMVENLKQIAQNTKKSTQETHCMKHGEKLHLFCEEDGQALCWVCAQSGKHRDHTRVPIEEAAKVYQEKIHVVLEKLRKGKELAEKMEMDLTMQRTDWKRNIDTQKSRIHAEFALQNSLLAQEEQRQLQRLEKDQREYLRLLGKKEAELAEKNQALQELISELERRIRGSELELLQEVRIILERSGSWNLDTLDIDAPDLTSTCPVPGRKKMLRTCWVHITLDRNTANSWLIISKDRRQVRMGDTHQNVSDNKERFSNYPMVLGAQRFSSGKMYWEVDVTQKEAWDLGVCRDSVQRKGQFSLSPENGFWTIWLWQDSYEAGTSPQTTLHIQVPPCQIGIFVDYEAGVVSFYNITDHGSLIYTFSECVFAGPLRPFFNVGFNYSGGNAAPLKLCPLKM
